Laboratory results: PubChem BioAssay AID1259308 (NCATS, 2017)

Assay: 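Knock-downs that increase output of a recombinant reporter protein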 (primary screen)
Cell system: human HEK293 embryonic kidney cells stably expressing firefly luciferase (HEK-CMV-Luc2-Hygro)
Reagent: single siRNA against human genes, 0.8 pmol siRNA per well
Duration: 72 h
Detection: 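Luciferase light (ONE-Glo) measured on one replicate plate set and viability (CellTiter-Glo) on the other, scaled to a negative control siRNA, with robust z-scores and luciferase per cell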
Reading the numbers: total luciferase, z-score and total luciferase, % of control: higher = more reporter protein produced; luciferase per cell, z-score: higher = more reporter output per viable cell; viable cells, % of control: higher = more viable cells
Call rule: 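Active when the median/MAD z-score for overall luciferase is greater than 3; a gene was taken forward for validation with new siRNAs if at least two of its three siRNAs passed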
Meaning of the calls: active = raised luciferase; inactive = no rise
In all, the deposit lists about 59,000 reagents; below is an unselected part. Of all reagents, about 1,510 (2.6%) got an active call. 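Calls use total luciferase alone and ignore viability, so some active siRNAs may act by altering cell number.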 The numbers tell different reagents against one gene apart. Reagent sequences are not shown.

| Target gene | reagent | total luciferase, z-score | total luciferase, % of control | luciferase per cell, z-score | viable cells, % of control | call |
| --- | --- | --- | --- | --- | --- | --- |
| GPR179 | 1 | 0.764 | 97.1 | 0.64 | 91.7 | inactive |
| GPR179 | 2 | -2 | 42.1 | -2.03 | 80.3 | inactive |
| GPR179 | 3 | 1.23 | 106 | 0.797 | 96.3 | inactive |
| RABGGTA | 1 | 1.99 | 122 | 1.32 | 96 | inactive |
| RABGGTA | 2 | -0.284 | 76.2 | 0.0139 | 84.9 | inactive |
| RABGGTA | 3 | -2.03 | 41.5 | -2.63 | 92.7 | inactive |
| CTSO | 1 | -0.0147 | 81.6 | 1.21 | 66.2 | inactive |
| CTSO | 2 | 0.916 | 100 | 0.389 | 101 | inactive |
| CTSO | 3 | 0.19 | 85.7 | -0.493 | 109 | inactive |
| RASL12 | 1 | 0.271 | 87.3 | 0.606 | 83.1 | inactive |
| RASL12 | 2 | 0.408 | 90 | 0.884 | 79.7 | inactive |
| RASL12 | 3 | -0.976 | 62.5 | 0.983 | 53.9 | inactive |
| PIGS | 1 | -0.707 | 67.8 | -0.472 | 85.8 | inactive |
| PIGS | 2 | 1.04 | 102 | 1.65 | 74.2 | inactive |
| PIGS | 3 | -1.91 | 43.8 | -1.88 | 80.4 | inactive |
| METTL1 | 1 | 0.629 | 94.4 | 0.0619 | 104 | inactive |
| METTL1 | 2 | 0.798 | 97.8 | 1.38 | 75.9 | inactive |
| METTL1 | 3 | -0.283 | 76.3 | 0.231 | 80.2 | inactive |
| OR6C75 | 1 | 2.08 | 123 | 1.85 | 84.6 | inactive |
| OR6C75 | 2 | -0.337 | 75.2 | -0.272 | 90.3 | inactive |
| OR6C75 | 3 | -0.686 | 68.2 | -0.45 | 85.8 | inactive |
| ZBTB6 | 1 | -0.334 | 75.3 | -0.236 | 89.5 | inactive |
| ZBTB6 | 2 | -1.62 | 49.6 | -1.72 | 87.2 | inactive |
| ZBTB6 | 3 | -1.1 | 60 | -0.934 | 85.7 | inactive |
| USP32P2 | 1 | 1.46 | 111 | 2.26 | 68.4 | inactive |
| USP32P2 | 2 | 0.616 | 94.1 | 0.436 | 93.8 | inactive |
| USP32P2 | 3 | -0.369 | 74.6 | -0.727 | 101 | inactive |
| DDAH1 | 1 | -0.495 | 72 | -0.406 | 89.6 | inactive |
| DDAH1 | 2 | -0.0445 | 81 | -0.0117 | 90.8 | inactive |
| DDAH1 | 3 | 0.0615 | 83.1 | -0.208 | 98.1 | inactive |
| TRIM75 | 1 | 0.163 | 85.1 | 2.44 | 50 | inactive |
| TRIM75 | 2 | 1.32 | 108 | 1.01 | 92.7 | inactive |
| TRIM75 | 3 | 0.0648 | 83.2 | -1.18 | 127 | inactive |
| RORB | 1 | 2.14 | 124 | 1.44 | 95.2 | inactive |
| RORB | 2 | 0.405 | 89.9 | 0.796 | 81.5 | inactive |
| RORB | 3 | -0.0654 | 80.6 | 0.208 | 85.2 | inactive |
| HNF1B | 1 | 0.0741 | 83.4 | 0.503 | 81.6 | inactive |
| HNF1B | 2 | -0.0545 | 80.8 | -0.0876 | 92.4 | inactive |
| HNF1B | 3 | -2.08 | 40.4 | -1.82 | 72.9 | inactive |
| ARSL | 1 | 0.697 | 95.8 | 0.172 | 102 | inactive |
| ARSL | 2 | -0.477 | 72.4 | -0.0936 | 82.9 | inactive |
| ARSL | 3 | -0.741 | 67.2 | -1.22 | 103 | inactive |

9 of these entries, reformatted.
USP32P2 #2
- total luciferase, z-score: 0.616
- total luciferase, % of control: 94.1
- luciferase per cell, z-score: 0.436
- viable cells, % of control: 93.8
- call: inactive

USP32P2 #3
- total luciferase, z-score: -0.369
- total luciferase, % of control: 74.6
- luciferase per cell, z-score: -0.727
- viable cells, % of control: 101
- call: inactive

DDAH1 #1
- total luciferase, z-score: -0.495
- total luciferase, % of control: 72
- luciferase per cell, z-score: -0.406
- viable cells, % of control: 89.6
- call: inactive

DDAH1 #2
- total luciferase, z-score: -0.0445
- total luciferase, % of control: 81
- luciferase per cell, z-score: -0.0117
- viable cells, % of control: 90.8
- call: inactive

DDAH1 #3
- total luciferase, z-score: 0.0615
- total luciferase, % of control: 83.1
- luciferase per cell, z-score: -0.208
- viable cells, % of control: 98.1
- call: inactive

TRIM75 #1
- total luciferase, z-score: 0.163
- total luciferase, % of control: 85.1
- luciferase per cell, z-score: 2.44
- viable cells, % of control: 50
- call: inactive

TRIM75 #2
- total luciferase, z-score: 1.32
- total luciferase, % of control: 108
- luciferase per cell, z-score: 1.01
- viable cells, % of control: 92.7
- call: inactive

TRIM75 #3
- total luciferase, z-score: 0.0648
- total luciferase, % of control: 83.2
- luciferase per cell, z-score: -1.18
- viable cells, % of control: 127
- call: inactive

RORB #1
- total luciferase, z-score: 2.14
- total luciferase, % of control: 124
- luciferase per cell, z-score: 1.44
- viable cells, % of control: 95.2
- call: inactive

The results go on.
| Target gene | reagent | total luciferase, z-score | total luciferase, % of control | luciferase per cell, z-score | viable cells, % of control | call |
| --- | --- | --- | --- | --- | --- | --- |
| SCGB2A2 | 1 | -1.27 | 56.6 | -0.277 | 68 | inactive |
| SCGB2A2 | 2 | 3.9 | 159 | 4.75 | 51 | active |
| SCGB2A2 | 3 | 1.2 | 106 | 0.674 | 99 | inactive |
| ACP2 | 1 | 2.07 | 123 | 1.82 | 85.1 | inactive |
| ACP2 | 2 | -0.317 | 75.6 | -0.248 | 90.2 | inactive |
| ACP2 | 3 | 0.979 | 101 | 0.919 | 88.9 | inactive |
| SPACA9 | 1 | 0.12 | 84.3 | -0.0614 | 95.7 | inactive |
| SPACA9 | 2 | -0.62 | 69.6 | -0.728 | 94.1 | inactive |
| SPACA9 | 3 | -1.64 | 49.3 | -1.59 | 83.8 | inactive |
| TPM2 | 1 | 3.64 | 154 | 3.1 | 76.1 | active |
| TPM2 | 2 | -0.535 | 71.2 | 0.163 | 76.3 | inactive |
| TPM2 | 3 | -0.649 | 69 | -0.722 | 93.2 | inactive |
| SMAGP | 1 | 0.505 | 91.9 | 0.554 | 88.8 | inactive |
| SMAGP | 2 | -1.12 | 59.7 | -0.219 | 70.6 | inactive |
| SMAGP | 3 | 0.667 | 95.2 | 1.27 | 76.1 | inactive |
| CCAR2 | 1 | -1.48 | 52.4 | -0.956 | 75.3 | inactive |
| CCAR2 | 2 | 0.732 | 96.4 | 0.384 | 97.4 | inactive |
| CCAR2 | 3 | -0.429 | 73.4 | -0.703 | 98.6 | inactive |
| OR52B6 | 1 | -0.475 | 72.4 | -0.188 | 85 | inactive |
| OR52B6 | 2 | 0.117 | 84.2 | 0.739 | 77.5 | inactive |
| OR52B6 | 3 | -0.142 | 79.1 | -0.248 | 94.3 | inactive |
| LAPTM4BP1 | 1 | 1.55 | 113 | 2.95 | 58 | inactive |
| LAPTM4BP1 | 2 | -0.766 | 66.7 | -1.07 | 98.6 | inactive |
| LAPTM4BP1 | 3 | -0.422 | 73.5 | -0.565 | 95.3 | inactive |
| S100A6 | 1 | 1.59 | 114 | 1.76 | 79.9 | inactive |
| S100A6 | 2 | -0.329 | 75.3 | -0.197 | 88.7 | inactive |
| S100A6 | 3 | -0.687 | 68.2 | -1.09 | 102 | inactive |
| VPS25 | 1 | -0.152 | 78.9 | 0.528 | 76.7 | inactive |
| VPS25 | 2 | -0.139 | 79.1 | -0.133 | 91.5 | inactive |
| VPS25 | 3 | 0.159 | 85 | 0.106 | 92.4 | inactive |
| RDH16 | 1 | -0.218 | 77.6 | -0.226 | 92 | inactive |
| RDH16 | 2 | 0.472 | 91.3 | 0.917 | 80.1 | inactive |
| RDH16 | 3 | -0.585 | 70.2 | -0.809 | 97.1 | inactive |
